Assay results as given in US20050227933.

Sequences of proteins named here, by UniProt entry; tags and fusion partners are left off. A change or cut given only in a name is not applied to a line headed by its entry.
UniProt P0CAW2: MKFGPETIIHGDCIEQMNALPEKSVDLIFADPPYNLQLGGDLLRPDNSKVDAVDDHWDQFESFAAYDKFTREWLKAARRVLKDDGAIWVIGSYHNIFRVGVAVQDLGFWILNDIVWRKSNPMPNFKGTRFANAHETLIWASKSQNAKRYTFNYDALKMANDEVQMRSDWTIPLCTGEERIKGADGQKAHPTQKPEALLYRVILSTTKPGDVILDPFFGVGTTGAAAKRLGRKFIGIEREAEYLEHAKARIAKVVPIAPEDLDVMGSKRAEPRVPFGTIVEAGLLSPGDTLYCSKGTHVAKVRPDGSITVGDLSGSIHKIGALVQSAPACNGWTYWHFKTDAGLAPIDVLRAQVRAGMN

Molecular target: CcrM adenine DNA methyltransferase (UniProt P0CAW2)
Assay: activity assay
Conditions: methylation protects from HinfI/HindIII cleavage; no value given; 30 C, SAM, 150 mM K acetate pH 7.5; purified recombinant protein; label: 5'-32P

TCCTCTCGCGAGTCAACAGAAAT / CGCGGATATTTCTGTTGACTCGCGAGAGGA [23/30-mer (unmethylated)]
activity on this sequence: active
